# Reference: article PMC7819943, “Rice protein-binding microarrays: a tool to detect cis-acting elements near promoter regions in rice”
# Protein sequences, listed by entry. Tags and fused reporters are not part of them.
# UniProt Q0JBA9, entry or part of it: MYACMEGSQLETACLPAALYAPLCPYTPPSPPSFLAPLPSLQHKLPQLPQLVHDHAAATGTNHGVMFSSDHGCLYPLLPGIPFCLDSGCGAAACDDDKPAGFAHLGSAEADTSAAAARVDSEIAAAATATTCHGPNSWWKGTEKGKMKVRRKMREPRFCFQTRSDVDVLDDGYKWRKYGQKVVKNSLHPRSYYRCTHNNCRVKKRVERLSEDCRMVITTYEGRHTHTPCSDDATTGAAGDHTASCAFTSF
# This is one part of the list.
# Target: OsWRKY34 (Oryza sativa, UniProt Q0JBA9 1-250)
# Assay: protein-binding microarray (RPBM); PBS, 2% BSA, 51.3 ng/ul salmon testes DNA, 50 uM zinc acetate, 200 nM TF, 25 C, 1 h; high values mean tight binding
# Details: protein: recombinant; tags: N-terminal polyhistidine and DsRed monomer fusion (pET32a); label: CyDye5-dUTP incorporated in the synthesized complementary strand; 3' TTTTT single-stranded linker to array surface; dsDNA, one strand shown
# In short: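 Binding signal is defined as the fluorescence intensity of each feature in arbitrary units, read on an Axon 4000B scanner. Transcription factors with N-terminal polyhistidine and DsRed fusions came from E. coli BL21-CodonPlus and were purified on Ni–NTA. They were incubated at 200 nM for 1 h at 25 °C on a custom Agilent array that had been made double-stranded with Cy5-dUTP, with 50 µM zinc acetate present, and the array was washed.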
row,Sequence,binding signal
1,ATTCTCTCCCCGGCGATTCTCTGGCCGCTTCTCCTCCCTCCGGAGTCACCTAGTGCAG,9260 fluorescence intensity (a.u.)
2,ATTGACCAACTCCGTTGACCAGTCAAACCTCTCTCTCCCTCGGAGTCACCTAGTGCAG,14800 fluorescence intensity (a.u.)
3,ATGTTTCTGCGGCCCGTCATCCGTGTTTGAGTCGGTTATACGGAGTCACCTAGTGCAG,10700 fluorescence intensity (a.u.)
4,CGTCGCCGCCAACTACGCCGACCTCACCACCGCCGCGTGGCGGAGTCACCTAGTGCAG,8340 fluorescence intensity (a.u.)
5,GGTACTTCTGATTGATTCAATAATAATTTGGGGAGCTTAACGGAGTCACCTAGTGCAG,9230 fluorescence intensity (a.u.)
6,AAACGGAAAGAACTCTATCTGTGATCTGTCTATAGTTGGACGGAGTCACCTAGTGCAG,14300 fluorescence intensity (a.u.)
7,TCCCTTCTAACTCACCTTGTTGCTGTTATTGTGCCAATGTCGGAGTCACCTAGTGCAG,9960 fluorescence intensity (a.u.)
8,CGCCTCCACATCTCCACACGCAACACACGGAGACGAATTTCGGAGTCACCTAGTGCAG,10000 fluorescence intensity (a.u.)
9,TAAGGAGGGTGTTGGGAGGGTGGGAGCTTTGCTTGGGGTGCGGAGTCACCTAGTGCAG,10200 fluorescence intensity (a.u.)
10,GGACGAACCATTTGCCCATTTTCACATGATGTTTAGTACACGGAGTCACCTAGTGCAG,9100 fluorescence intensity (a.u.)
11,CTCGTCCTCTCTCCTATCTTCTATTCTCTGCGCCACATCACGGAGTCACCTAGTGCAG,9660 fluorescence intensity (a.u.)
12,ACAACCAGGAATTCCTCACATTTGTTGCCACCATACTTTCCGGAGTCACCTAGTGCAG,11200 fluorescence intensity (a.u.)
13,TTGTCGCCACCCATACCTAATGAAGTTCCTTACATTTTTCCGGAGTCACCTAGTGCAG,8910 fluorescence intensity (a.u.)
14,ACAGATTGCTCCACTTCGCCTGCCTGCTTCGCCCACCGTCCGGAGTCACCTAGTGCAG,9730 fluorescence intensity (a.u.)
15,ACAATTAACACACGTAAACACTATCTGCTATTGTAAAAAACGGAGTCACCTAGTGCAG,8460 fluorescence intensity (a.u.)
16,AAATAGTCAAAATTTTCCTACTAGGGCTAGTATTTCCACTCGGAGTCACCTAGTGCAG,8830 fluorescence intensity (a.u.)
17,AATTTTTTTTCAAAATACTTGTTGTCCTCTCCTCACATCCCGGAGTCACCTAGTGCAG,8360 fluorescence intensity (a.u.)
18,CTACCACACAACACATTTCACCTCGCAATTAATAAGATCCCGGAGTCACCTAGTGCAG,8500 fluorescence intensity (a.u.)
19,CGGTCAACTAACCCAGTCGCCATTGCCGTTAACTTCTTCACGGAGTCACCTAGTGCAG,9100 fluorescence intensity (a.u.)
20,AAAATATGACGCTACACTTTTCACTTGATTTCAATCACTTCGGAGTCACCTAGTGCAG,9510 fluorescence intensity (a.u.)
21,GGCATCTTTACTTTCTACAAAAATATTTTTGTATGATATACGGAGTCACCTAGTGCAG,9090 fluorescence intensity (a.u.)

row,Sequence,binding signal
1,TGTACATAGAGCTGTCAAACAAATTTAGGGAGGGCTGTGACGGAGTCACCTAGTGCAG,10800 fluorescence intensity (a.u.)
2,ACAGAGGTCGTTCCAAGCCGCCACCGCACTCCACCGCAGCCGGAGTCACCTAGTGCAG,8900 fluorescence intensity (a.u.)
3,GTGTGATTTGTTTGTTGAGGCTGGGGCATGTTCTCGGGGACGGAGTCACCTAGTGCAG,15100 fluorescence intensity (a.u.)
4,GAGTACTACGAGAAGCAGTCGCGCCACATCCTCGACACCACGGAGTCACCTAGTGCAG,8280 fluorescence intensity (a.u.)
5,TTAAATTTCTCATCTCGTCAGCATGTGTTTTCATAAAAAACGGAGTCACCTAGTGCAG,8070 fluorescence intensity (a.u.)
6,ATTCTTCTCGGCCCACTCTGATCTGTCCAGCATCACATTCCGGAGTCACCTAGTGCAG,14400 fluorescence intensity (a.u.)
7,GCTATTTTCTTTTGTCATCTAATAAGGGAACTAGATTTGTCGGAGTCACCTAGTGCAG,8110 fluorescence intensity (a.u.)
8,ATCTCCAGATATACATGTCTTCCTCATTGTTCCTCCTTACCGGAGTCACCTAGTGCAG,8640 fluorescence intensity (a.u.)
9,TGATCCTCTACTTCTCCAGTGCGGCACCGTGCCGCGCGGCCGGAGTCACCTAGTGCAG,13200 fluorescence intensity (a.u.)
10,CTCTCAGTTTGCATGCAGCTCTGCATTTTCTGCTGATGAACGGAGTCACCTAGTGCAG,12400 fluorescence intensity (a.u.)
11,CTTATCTCTCTCGTTTTCCACGCACACGTTTTTCAAACCGCGGAGTCACCTAGTGCAG,8940 fluorescence intensity (a.u.)
12,CTTTAATTTGCATGTCTCTCCATCACTACCAAATTCGGCTCGGAGTCACCTAGTGCAG,8530 fluorescence intensity (a.u.)
13,ACTGGTTTCTTTTGTTGTTCTCATTGAGCATTAGCATGTGCGGAGTCACCTAGTGCAG,8260 fluorescence intensity (a.u.)
14,CCACACACGCACCCCTACACGCATGCTAGACCTATCAACTCGGAGTCACCTAGTGCAG,9390 fluorescence intensity (a.u.)
15,CGACGAATGTCTGTTATCGTCCGTTTTCTGTGAATTATTTCGGAGTCACCTAGTGCAG,9940 fluorescence intensity (a.u.)
16,CACCATGGCCTACATCCTCGCCGTCAACGCCTCCATCCTCCGGAGTCACCTAGTGCAG,10300 fluorescence intensity (a.u.)
17,AATGGTCAAACACGTATTTAAAAAGTCAACGGTGTCAAACCGGAGTCACCTAGTGCAG,14100 fluorescence intensity (a.u.)
18,AAATAGGGTTTGGAGGGTATTTTCGTCACTAGGAAGTCTTCGGAGTCACCTAGTGCAG,8180 fluorescence intensity (a.u.)
19,TTCTGATATGTCTTTTTTTTTATCGATTCTTTGTATTTACCGGAGTCACCTAGTGCAG,10400 fluorescence intensity (a.u.)
20,TCTTGTCCACCACGCGTCAGTTTAGCATGCCGCACGTCTCCGGAGTCACCTAGTGCAG,11600 fluorescence intensity (a.u.)
21,GAATGCTTTTGTTGTGGTCGGTCACCTTCGATCGGATGCACGGAGTCACCTAGTGCAG,8600 fluorescence intensity (a.u.)

row,Sequence,binding signal
1,CGATATCCCACTTCCCGGCATATTTCCAGCGGCAATCTTCCGGAGTCACCTAGTGCAG,8150 fluorescence intensity (a.u.)
2,TTCTTCTACATCTTACTCCTTTCTTCATGTATTCCACATCCGGAGTCACCTAGTGCAG,11400 fluorescence intensity (a.u.)
3,ATGTAGTAATCTCATGGATTAAAGGCTCTTTTTTCTTGTCCGGAGTCACCTAGTGCAG,8860 fluorescence intensity (a.u.)
4,CACACCACCGGCCGCCGCCGCCGCGCCGCCATTCGCGATGCGGAGTCACCTAGTGCAG,8550 fluorescence intensity (a.u.)
5,TTTTTATTTGTTATTTACAAGACTAGTATGCTTCATCTGCCGGAGTCACCTAGTGCAG,8050 fluorescence intensity (a.u.)
6,TTTGGGGTGTGTTTTTGTCTAGAGGTAAAGTTTTTAAAGTCGGAGTCACCTAGTGCAG,10600 fluorescence intensity (a.u.)
7,TAACCTGGAACTCATTTCGTCTTAATCTGAAGCATCCCATCGGAGTCACCTAGTGCAG,8950 fluorescence intensity (a.u.)
8,CGACCGCATCAACAAATACAGCCCAAGTCCTATGCAATAACGGAGTCACCTAGTGCAG,8140 fluorescence intensity (a.u.)
9,TATCCATGCATTCCTTACGCTCGGTCTCTTTTCTTTCGCCCGGAGTCACCTAGTGCAG,9280 fluorescence intensity (a.u.)
10,CATCGTGCAATTGATTGATCGTCTGATTTTATGTCGATTCCGGAGTCACCTAGTGCAG,8640 fluorescence intensity (a.u.)
11,CGAACTCCTCCCGTTTTCCCGTCCCCGCATCCGCAAATCACGGAGTCACCTAGTGCAG,9500 fluorescence intensity (a.u.)
12,CGCCGCCGCCCTCACCCTCGCCGCCGCGCATCCCGCGGTCCGGAGTCACCTAGTGCAG,8120 fluorescence intensity (a.u.)
13,ATGGGAGGGGCTTTGGTGGCAATGGAGTTAACCTTCCTCTCGGAGTCACCTAGTGCAG,10800 fluorescence intensity (a.u.)
14,CGCAAAATCAATCAAATCTGCCTCGACTTTTTTTTTTCAGCGGAGTCACCTAGTGCAG,8870 fluorescence intensity (a.u.)
15,CCTGTCTCGCTGCACAGTTGTACACTCTCCTGGAGAATGCCGGAGTCACCTAGTGCAG,9170 fluorescence intensity (a.u.)
16,AACCTCTCCATGCCTTGCTGCGCTCCGGCATTTCGTCAAACGGAGTCACCTAGTGCAG,9720 fluorescence intensity (a.u.)
17,TTGGGTTTAGGGCGGTAATTCGGTTGACCGCGATAGTTCACGGAGTCACCTAGTGCAG,12400 fluorescence intensity (a.u.)
18,TCGATCGCCTGCTCCGCTACGAATAGCCATGTTGCGACCCCGGAGTCACCTAGTGCAG,8840 fluorescence intensity (a.u.)
19,TCTGAGTGGTTCTCTGGGCGTTGTTGGTGCGTTCTTGATCCGGAGTCACCTAGTGCAG,8900 fluorescence intensity (a.u.)
20,GATTGCTCCGACCTCACCGTCTCTCTTCTTTCTCCCCAATCGGAGTCACCTAGTGCAG,10700 fluorescence intensity (a.u.)
21,ATTTGCTCTGTAGTATATACATTATTTTAGCTATATTTGACGGAGTCACCTAGTGCAG,10500 fluorescence intensity (a.u.)

# Two records picked at random from those above:
row,Sequence,binding signal
1,ATTCTCTCCCCGGCGATTCTCTGGCCGCTTCTCCTCCCTCCGGAGTCACCTAGTGCAG,9260 fluorescence intensity (a.u.)
15,CCTGTCTCGCTGCACAGTTGTACACTCTCCTGGAGAATGCCGGAGTCACCTAGTGCAG,9170 fluorescence intensity (a.u.)

# Following part:

row,Sequence,binding signal
1,CATTTCTCCTCATCCCACACTCCTCATCTTGTGCTCTCAACGGAGTCACCTAGTGCAG,9420 ± 112 fluorescence intensity (a.u.)
2,TTTTATATGTTTTTTGCCAGACAGTTTAGTCAGCTCCCAGCGGAGTCACCTAGTGCAG,8090 fluorescence intensity (a.u.)
3,CACATGTACTACTACTATCTGTTTGCCTCTTCCCACATCCCGGAGTCACCTAGTGCAG,8410 fluorescence intensity (a.u.)
4,TCATCAATGTCGACTTCTGTTTTGAAGTCGCTTTTTCATCCGGAGTCACCTAGTGCAG,9100 fluorescence intensity (a.u.)
5,CCCTACTGCCCTTGACCCCTCCCGCTCCCCTCAGATCTCCCGGAGTCACCTAGTGCAG,14800 fluorescence intensity (a.u.)
6,GTAATGTTGTTTATTCATCCTGGTTTTCTCTTTTCTAGTGCGGAGTCACCTAGTGCAG,8840 fluorescence intensity (a.u.)
7,GGTGGGCAACGTTTAGGTTCGACTTTCTTTGTGAGATGTGCGGAGTCACCTAGTGCAG,9250 fluorescence intensity (a.u.)
8,AGAAAGAGGGGAGGTGGGGTTGAAGACTAAAGTTGTAACTCGGAGTCACCTAGTGCAG,8290 fluorescence intensity (a.u.)
9,ATCTCATAACTTACCACCAGCATACTGTCCAAAATACACACGGAGTCACCTAGTGCAG,9040 fluorescence intensity (a.u.)
10,TCGATTAGGCTCGCTGGTGTTTTCTCTCACCTCTACGTCACGGAGTCACCTAGTGCAG,11600 fluorescence intensity (a.u.)
11,GCCTTACACTGTCCTTGATCTTGTGTGACCCATCTATATACGGAGTCACCTAGTGCAG,11400 fluorescence intensity (a.u.)
12,CACCGCAGTCAACGACGCCGGCCGTCGCTGTCTTTCTCGCCGGAGTCACCTAGTGCAG,8330 fluorescence intensity (a.u.)
13,GTTCCTCTCTGATGCGTGGGTCCTTTGCCTTTTGTTGCTCCGGAGTCACCTAGTGCAG,8590 fluorescence intensity (a.u.)
14,GCCACGTGGGTGATCGTGTCTGCCTCAAGTCTCTAAGTCACGGAGTCACCTAGTGCAG,9000 fluorescence intensity (a.u.)
15,CCGACCCGACCCGACCACCCACCGGCGAGGCCCACTCCGTCGGAGTCACCTAGTGCAG,8620 fluorescence intensity (a.u.)
16,AGGGTGGGGCGGGGATGCCTCCTGGCATCGGGGACGAGAGCGGAGTCACCTAGTGCAG,10200 fluorescence intensity (a.u.)
17,TTATCTTGCATTCTTGTTCTTGGTTTGCATCTCTTCTTGCCGGAGTCACCTAGTGCAG,12800 fluorescence intensity (a.u.)
18,CAGATAACGGCCGCGACCTCACCCTTCGTCACCCCTAACCCGGAGTCACCTAGTGCAG,8110 fluorescence intensity (a.u.)
19,TCGCTCGCCCGCCGTGAAAAGTGCCCTTTTTTCCTTTCAACGGAGTCACCTAGTGCAG,11000 fluorescence intensity (a.u.)
20,GTTTGTGGTGTGCATTGCCGATTTGCCATTGCGTTGGGTTCGGAGTCACCTAGTGCAG,10100 fluorescence intensity (a.u.)
21,GGCAAAGATGATGTTACTATGATCAATGAGGTCTACTCTACGGAGTCACCTAGTGCAG,8840 fluorescence intensity (a.u.)

# As entered above.
# TCATCAATGTCGACTTCTGTTTTGAAGTCGCTTTTTCATCCGGAGTCACCTAGTGCAG | binding signal: 9100 fluorescence intensity (a.u.)
# AGAAAGAGGGGAGGTGGGGTTGAAGACTAAAGTTGTAACTCGGAGTCACCTAGTGCAG | binding signal: 8290 fluorescence intensity (a.u.)
